Experimental data: the supplement of paper PMC10849652
This is one part of the list.

Sequences of proteins named here, by UniProt entry; tags and fusion partners are left off. A change or cut given only in a name is not applied to a line headed by its entry.
UniProt Q9Y5C1: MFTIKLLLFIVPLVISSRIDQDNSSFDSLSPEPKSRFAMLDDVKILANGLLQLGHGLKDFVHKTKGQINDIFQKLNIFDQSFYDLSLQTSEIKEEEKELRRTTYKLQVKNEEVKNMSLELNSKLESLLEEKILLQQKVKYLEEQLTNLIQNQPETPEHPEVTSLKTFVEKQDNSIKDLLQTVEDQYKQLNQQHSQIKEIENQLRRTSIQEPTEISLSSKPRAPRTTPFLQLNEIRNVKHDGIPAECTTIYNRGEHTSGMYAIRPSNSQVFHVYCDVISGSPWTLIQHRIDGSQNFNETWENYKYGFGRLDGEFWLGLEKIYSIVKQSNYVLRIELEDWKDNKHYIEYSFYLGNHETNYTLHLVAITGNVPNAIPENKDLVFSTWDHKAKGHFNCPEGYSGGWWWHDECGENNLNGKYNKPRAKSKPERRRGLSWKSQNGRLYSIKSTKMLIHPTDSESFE
UniProt P84077: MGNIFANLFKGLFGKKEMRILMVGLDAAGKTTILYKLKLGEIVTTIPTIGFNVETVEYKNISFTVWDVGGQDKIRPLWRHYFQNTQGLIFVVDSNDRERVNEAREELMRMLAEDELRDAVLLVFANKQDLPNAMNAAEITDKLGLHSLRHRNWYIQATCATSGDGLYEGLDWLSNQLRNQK
UniProt Q9HC16: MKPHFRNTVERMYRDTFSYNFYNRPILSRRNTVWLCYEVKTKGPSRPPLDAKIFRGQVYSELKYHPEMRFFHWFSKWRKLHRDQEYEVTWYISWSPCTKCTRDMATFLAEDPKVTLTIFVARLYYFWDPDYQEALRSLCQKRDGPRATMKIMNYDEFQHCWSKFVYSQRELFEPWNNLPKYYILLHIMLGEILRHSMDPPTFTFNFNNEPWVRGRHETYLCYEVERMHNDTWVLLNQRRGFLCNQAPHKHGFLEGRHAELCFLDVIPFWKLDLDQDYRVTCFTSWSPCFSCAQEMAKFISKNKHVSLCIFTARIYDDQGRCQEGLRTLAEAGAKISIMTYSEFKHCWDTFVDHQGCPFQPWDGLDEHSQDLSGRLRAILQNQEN
UniProt P05090: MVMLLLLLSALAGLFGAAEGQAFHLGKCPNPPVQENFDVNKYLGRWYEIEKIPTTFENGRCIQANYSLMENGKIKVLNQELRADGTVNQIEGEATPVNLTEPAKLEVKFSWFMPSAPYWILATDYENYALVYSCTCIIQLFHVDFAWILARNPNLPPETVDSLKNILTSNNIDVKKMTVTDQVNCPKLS
UniProt P07741: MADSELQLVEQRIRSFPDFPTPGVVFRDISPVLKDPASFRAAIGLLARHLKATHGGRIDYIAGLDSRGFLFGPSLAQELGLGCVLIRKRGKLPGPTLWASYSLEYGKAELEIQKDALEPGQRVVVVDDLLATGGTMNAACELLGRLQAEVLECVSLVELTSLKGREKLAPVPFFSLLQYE
UniProt O00203: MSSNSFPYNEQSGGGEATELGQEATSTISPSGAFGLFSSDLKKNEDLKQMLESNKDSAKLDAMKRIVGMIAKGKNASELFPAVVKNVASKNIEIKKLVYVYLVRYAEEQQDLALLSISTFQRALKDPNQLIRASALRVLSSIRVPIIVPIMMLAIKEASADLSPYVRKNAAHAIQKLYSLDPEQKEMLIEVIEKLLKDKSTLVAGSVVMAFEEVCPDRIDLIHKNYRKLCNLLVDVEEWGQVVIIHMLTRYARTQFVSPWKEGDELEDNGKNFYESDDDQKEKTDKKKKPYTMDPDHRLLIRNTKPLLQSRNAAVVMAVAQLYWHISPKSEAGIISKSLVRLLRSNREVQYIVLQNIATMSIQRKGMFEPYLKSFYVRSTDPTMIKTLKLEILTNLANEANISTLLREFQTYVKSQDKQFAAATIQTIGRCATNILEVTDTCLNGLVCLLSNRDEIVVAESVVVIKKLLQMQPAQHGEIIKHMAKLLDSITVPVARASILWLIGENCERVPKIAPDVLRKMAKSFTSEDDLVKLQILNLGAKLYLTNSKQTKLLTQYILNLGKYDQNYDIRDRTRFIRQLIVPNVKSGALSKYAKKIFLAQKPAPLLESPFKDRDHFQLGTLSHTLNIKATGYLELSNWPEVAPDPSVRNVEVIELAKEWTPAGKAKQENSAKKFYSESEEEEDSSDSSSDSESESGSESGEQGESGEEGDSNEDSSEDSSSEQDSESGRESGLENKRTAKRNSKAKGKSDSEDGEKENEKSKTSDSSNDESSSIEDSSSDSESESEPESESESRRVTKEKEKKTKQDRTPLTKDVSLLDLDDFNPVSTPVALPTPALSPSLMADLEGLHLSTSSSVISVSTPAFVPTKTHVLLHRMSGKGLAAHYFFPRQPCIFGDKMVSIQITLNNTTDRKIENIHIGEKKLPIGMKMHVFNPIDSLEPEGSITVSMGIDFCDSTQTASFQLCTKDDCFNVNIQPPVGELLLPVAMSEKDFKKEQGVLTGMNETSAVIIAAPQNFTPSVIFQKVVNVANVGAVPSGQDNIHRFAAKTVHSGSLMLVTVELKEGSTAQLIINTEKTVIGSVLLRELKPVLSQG
UniProt Q9HCJ1: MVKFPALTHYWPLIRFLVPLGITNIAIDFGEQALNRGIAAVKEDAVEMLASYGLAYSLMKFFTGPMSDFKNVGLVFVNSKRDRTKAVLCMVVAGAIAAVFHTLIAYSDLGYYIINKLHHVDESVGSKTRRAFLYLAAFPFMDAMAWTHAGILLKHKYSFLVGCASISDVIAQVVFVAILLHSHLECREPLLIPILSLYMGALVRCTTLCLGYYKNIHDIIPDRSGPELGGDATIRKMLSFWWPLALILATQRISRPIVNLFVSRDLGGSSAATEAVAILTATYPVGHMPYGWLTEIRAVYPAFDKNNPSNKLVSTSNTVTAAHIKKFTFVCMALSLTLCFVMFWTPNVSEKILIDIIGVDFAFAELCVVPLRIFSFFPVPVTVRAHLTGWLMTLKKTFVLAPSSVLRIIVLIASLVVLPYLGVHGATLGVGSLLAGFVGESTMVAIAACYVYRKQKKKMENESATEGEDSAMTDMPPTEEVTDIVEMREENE
UniProt Q9NRY4: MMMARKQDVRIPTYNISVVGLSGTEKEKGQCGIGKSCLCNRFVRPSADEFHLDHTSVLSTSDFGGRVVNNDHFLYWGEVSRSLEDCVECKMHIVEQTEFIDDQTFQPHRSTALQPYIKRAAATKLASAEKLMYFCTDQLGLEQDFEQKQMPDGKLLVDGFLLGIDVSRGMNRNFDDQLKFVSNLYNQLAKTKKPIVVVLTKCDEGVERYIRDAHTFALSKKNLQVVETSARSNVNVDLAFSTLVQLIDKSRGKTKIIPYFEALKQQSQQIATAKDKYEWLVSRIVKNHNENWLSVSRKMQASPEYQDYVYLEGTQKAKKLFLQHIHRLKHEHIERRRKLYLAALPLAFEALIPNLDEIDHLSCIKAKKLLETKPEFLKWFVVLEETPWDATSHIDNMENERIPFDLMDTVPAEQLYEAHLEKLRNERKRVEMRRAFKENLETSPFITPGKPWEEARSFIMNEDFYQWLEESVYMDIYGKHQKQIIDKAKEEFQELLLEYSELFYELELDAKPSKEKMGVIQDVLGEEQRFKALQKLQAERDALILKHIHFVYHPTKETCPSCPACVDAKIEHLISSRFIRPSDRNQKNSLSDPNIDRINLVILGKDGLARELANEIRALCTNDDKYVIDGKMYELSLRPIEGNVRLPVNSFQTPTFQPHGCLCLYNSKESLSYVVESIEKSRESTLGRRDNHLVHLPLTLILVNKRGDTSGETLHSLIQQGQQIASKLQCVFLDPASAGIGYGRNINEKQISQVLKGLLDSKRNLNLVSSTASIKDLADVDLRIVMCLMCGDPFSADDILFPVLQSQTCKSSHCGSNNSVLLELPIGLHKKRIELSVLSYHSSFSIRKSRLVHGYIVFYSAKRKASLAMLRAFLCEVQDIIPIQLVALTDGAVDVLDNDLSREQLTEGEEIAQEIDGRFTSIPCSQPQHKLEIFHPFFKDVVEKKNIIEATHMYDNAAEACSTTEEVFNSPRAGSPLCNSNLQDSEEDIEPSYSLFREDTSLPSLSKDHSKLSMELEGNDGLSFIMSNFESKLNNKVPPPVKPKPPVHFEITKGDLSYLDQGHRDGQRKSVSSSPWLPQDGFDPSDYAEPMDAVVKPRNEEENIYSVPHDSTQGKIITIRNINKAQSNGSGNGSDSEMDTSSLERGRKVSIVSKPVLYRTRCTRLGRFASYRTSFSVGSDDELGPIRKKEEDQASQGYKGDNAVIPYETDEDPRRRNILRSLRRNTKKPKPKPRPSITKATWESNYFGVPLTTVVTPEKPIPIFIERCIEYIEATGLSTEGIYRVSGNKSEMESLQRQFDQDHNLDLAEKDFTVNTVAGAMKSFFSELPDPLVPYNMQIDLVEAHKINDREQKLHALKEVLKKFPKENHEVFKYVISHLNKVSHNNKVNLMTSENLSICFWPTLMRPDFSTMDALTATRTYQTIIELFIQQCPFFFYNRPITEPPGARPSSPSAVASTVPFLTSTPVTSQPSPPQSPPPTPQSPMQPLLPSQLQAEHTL
UniProt Q8IUX4: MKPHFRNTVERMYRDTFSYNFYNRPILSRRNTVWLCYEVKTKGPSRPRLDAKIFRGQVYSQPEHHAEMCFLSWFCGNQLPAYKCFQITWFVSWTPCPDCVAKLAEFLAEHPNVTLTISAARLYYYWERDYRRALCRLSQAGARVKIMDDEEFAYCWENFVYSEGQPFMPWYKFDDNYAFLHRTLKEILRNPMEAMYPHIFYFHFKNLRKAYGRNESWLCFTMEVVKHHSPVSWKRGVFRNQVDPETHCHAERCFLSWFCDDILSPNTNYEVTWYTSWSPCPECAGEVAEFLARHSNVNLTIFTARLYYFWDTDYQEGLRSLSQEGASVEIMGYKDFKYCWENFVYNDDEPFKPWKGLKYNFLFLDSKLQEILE
UniProt Q8N6S4: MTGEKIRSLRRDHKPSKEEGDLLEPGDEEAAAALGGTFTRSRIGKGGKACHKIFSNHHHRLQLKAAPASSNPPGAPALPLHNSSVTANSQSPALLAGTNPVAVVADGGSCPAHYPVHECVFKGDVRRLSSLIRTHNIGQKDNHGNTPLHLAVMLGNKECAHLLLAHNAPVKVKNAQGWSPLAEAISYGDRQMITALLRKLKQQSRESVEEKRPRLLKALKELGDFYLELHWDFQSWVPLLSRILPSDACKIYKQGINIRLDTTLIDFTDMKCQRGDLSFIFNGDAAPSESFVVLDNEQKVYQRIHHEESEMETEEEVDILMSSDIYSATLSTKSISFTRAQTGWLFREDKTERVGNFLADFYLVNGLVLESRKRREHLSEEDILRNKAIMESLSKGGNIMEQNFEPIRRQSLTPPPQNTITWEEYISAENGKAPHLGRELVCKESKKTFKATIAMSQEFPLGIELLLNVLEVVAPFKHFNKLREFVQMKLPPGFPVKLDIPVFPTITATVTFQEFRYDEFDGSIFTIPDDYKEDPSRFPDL

Experiments:
Experiment in all cases: log2 fold change, soluble protein after heating vs DMSO (PISA); higher = thermal stabilisation; K562 cells, 10 uM, 30 min; active = over 0.2 and 3.5 SD of the protein, either way, in both replicates (recomputed)
[1] = compound: NC(=O)Nc1cc(-c2cccc(F)c2)sc1C(=O)N[C@H]1CCCNC1
How it was run: (§1)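 Aliquots of K562 cells (2×10^6 cells/mL) treated with 10 μM compound for 30 min were heated for 3 min over 48°C-58°C. After pooling and extraction in PBS with 0.5% NP-40 at 4°C, soluble protein from a 21,000xg, 90 min spin was quantified by TMTpro 16plex LC-MS/MS with channel sums equalised. Thermal stability is expressed against control samples, from duplicates, as a log2 fold change.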

[2] = compound: NC(=O)c1cnc(N[C@@H]2CCCC[C@@H]2N)nc1Nc1cccc(-n2nccn2)c1
How it was run: as §1

[3] = compound: NC1(c2ccc(-c3nc4ccn5c(=O)[nH]nc5c4cc3-c3ccccc3)cc2)CCC1
How it was run: as §1

[4] = compound: NCC(=O)Nc1ccc(-n2nc(C(F)(F)F)cc2-c2ccc3c(ccc4ccccc43)c2)cc1
How it was run: as §1

entinostat = compound: Nc1ccccc1NC(=O)c1ccc(CNC(=O)OCc2cccnc2)cc1 [entinostat]
How it was run: as §1

citarinostat = compound: O=C(CCCCCCNC(=O)c1cnc(N(c2ccccc2)c2ccccc2Cl)nc1)NO [citarinostat]
How it was run: as §1

silmitasertib = compound: O=C(O)c1ccc2c(c1)nc(Nc1cccc(Cl)c1)c1ccncc12 [silmitasertib]
How it was run: as §1

[5] = compound: O=C1NC(=O)C(c2cnc3ccccn23)=C1c1cn2c3c(cc(F)cc13)CN(C(=O)N1CCCCC1)CC2
How it was run: as §1

[6] = compound: c1cc(OCCN2CCCCC2)cc(-c2n[nH]c3ccc(-c4nnc[nH]4)cc23)c1
How it was run: as §1

entospletinib = compound: c1cn2cc(-c3ccc4cn[nH]c4c3)nc(Nc3ccc(N4CCOCC4)cc3)c2n1 [entospletinib]
How it was run: as §1

vorinostat = compound: O=C(CCCCCCC(=O)Nc1ccccc1)NO [vorinostat]
How it was run: as §1

Measured: log2 fold change

ANGPTL3 (UniProt Q9Y5C1)
inactive: [1] -0.277 | [2] 0.085 | [3] 0.165 | [4] -0.041 | entinostat -0.289 | citarinostat 0.008 | silmitasertib 0.125 | [5] 0.061 | [6] 0.037 | entospletinib 0.028

ARF1 (UniProt P84077)
inactive: [1] 0.047 | [2] -0.017 | [3] -0.004 | [4] 0.048 | entinostat -0.433 | citarinostat -0.085 | silmitasertib 0.131 | [5] -0.118 | [6] -0.145 | entospletinib 0.022

APOBEC3G (UniProt Q9HC16)
inactive: [1] 0.046 | [2] 0.149 | [3] 0.061 | [4] -0.027 | entinostat 0.026 | citarinostat 0.125 | silmitasertib 0.116 | [5] 0.202 | [6] -0.013

APOD (UniProt P05090)
inactive: [1] 0.254 | [2] 0.38 | [3] 0.507 | [4] -0.104 | entinostat -0.048 | citarinostat -0.2 | silmitasertib -0.493 | [6] 1.18 | entospletinib 0.016

AP2M1 (UniProt C9JTK4)
inactive: [1] -0.07 | [2] -0.149 | [3] -0.111 | [4] -0.261 | entinostat 0.043 | citarinostat -0.132 | silmitasertib 0.116 | [5] -0.267 | [6] 0.024

APRT (UniProt P07741)
inactive: [1] -0.004 | [2] -0.038 | [3] 0.024 | [4] -0.015 | entinostat 0.001 | vorinostat -0.025 | citarinostat 0.045 | silmitasertib -0.019 | [5] -0.057 | [6] -0.017 | entospletinib -0.016

AP3B1 (UniProt O00203)
inactive: [1] -0.046 | [2] -0.012 | [3] -0.066 | [4] -0.034 | entinostat 0.015 | vorinostat 0.032 | citarinostat 0.064 | silmitasertib 0.003 | [5] -0.025 | [6] -0.04 | entospletinib -0.006

ANKH (UniProt Q9HCJ1)
inactive: [2] -0.227 | vorinostat -0.256 | citarinostat -0.314 | [6] -0.386 | entospletinib 0.111

Two entries picked at random from the list so far, as already listed:
AP3B1 (UniProt O00203)
inactive: [1] -0.046 | [2] -0.012 | [3] -0.066 | [4] -0.034 | entinostat 0.015 | vorinostat 0.032 | citarinostat 0.064 | silmitasertib 0.003 | [5] -0.025 | [6] -0.04 | entospletinib -0.006

APOD (UniProt P05090)
inactive: [1] 0.254 | [2] 0.38 | [3] 0.507 | [4] -0.104 | entinostat -0.048 | citarinostat -0.2 | silmitasertib -0.493 | [6] 1.18 | entospletinib 0.016

Additional records follow:

ARHGAP35 (UniProt Q9NRY4)
inactive: [2] -0.131 | [3] -0.039 | [4] -0.132 | vorinostat 0.148 | citarinostat 0.015 | silmitasertib 0.18 | [5] 0.184 | [6] 0.031 | entospletinib 0.036

APOBEC3F (UniProt Q8IUX4)
inactive: [2] 0.152 | citarinostat -0.078 | [5] 0.324 | [6] -0.16 | entospletinib 0.578

ANKRD13C (UniProt Q8N6S4)
inactive: [2] 0.075 | [4] -0.085 | citarinostat 0.118 | [5] -0.146 | [6] -0.309 | entospletinib 0.01
